The other results are listed elsewhere or left out.
Key:
Test in all cases: log2 fold change, soluble protein after heating vs DMSO (PISA); higher = thermal stabilisation; K562 lysate, 10 uM; active = over 0.2 and 3.5 SD of the protein, either way, in both replicates (recomputed)
[1] = compound: Cc1cn(-c2cc(NC(=O)c3ccc(C)c(Nc4nccc(-c5cccnc5)n4)c3)cc(C(F)(F)F)c2)cn1 [nilotinib]
In short: (§1)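 A 30 min treatment with 10 μM compound was applied to crude K562 extract at 1 mg/mL protein in PBS pH 7.4 with 1 mM MgCl2. Heating for 3 min spanned 48°C-58°C, after which aliquots were pooled, adjusted to 0.5% NP-40 at 4°C and spun at 21,000xg for 90 min. TMTpro 16plex LC-MS/MS of the supernatant, with channel sums equalised, gave values recorded as log-two fold change in thermal stability against solvent controls, from duplicates.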

The chains behind the UniProt entries cited, without tags or fusion partners. Where a name states a change or a piece, a line headed by the entry shows the natural chain unless it says otherwise.
UniProt Q9BZJ0: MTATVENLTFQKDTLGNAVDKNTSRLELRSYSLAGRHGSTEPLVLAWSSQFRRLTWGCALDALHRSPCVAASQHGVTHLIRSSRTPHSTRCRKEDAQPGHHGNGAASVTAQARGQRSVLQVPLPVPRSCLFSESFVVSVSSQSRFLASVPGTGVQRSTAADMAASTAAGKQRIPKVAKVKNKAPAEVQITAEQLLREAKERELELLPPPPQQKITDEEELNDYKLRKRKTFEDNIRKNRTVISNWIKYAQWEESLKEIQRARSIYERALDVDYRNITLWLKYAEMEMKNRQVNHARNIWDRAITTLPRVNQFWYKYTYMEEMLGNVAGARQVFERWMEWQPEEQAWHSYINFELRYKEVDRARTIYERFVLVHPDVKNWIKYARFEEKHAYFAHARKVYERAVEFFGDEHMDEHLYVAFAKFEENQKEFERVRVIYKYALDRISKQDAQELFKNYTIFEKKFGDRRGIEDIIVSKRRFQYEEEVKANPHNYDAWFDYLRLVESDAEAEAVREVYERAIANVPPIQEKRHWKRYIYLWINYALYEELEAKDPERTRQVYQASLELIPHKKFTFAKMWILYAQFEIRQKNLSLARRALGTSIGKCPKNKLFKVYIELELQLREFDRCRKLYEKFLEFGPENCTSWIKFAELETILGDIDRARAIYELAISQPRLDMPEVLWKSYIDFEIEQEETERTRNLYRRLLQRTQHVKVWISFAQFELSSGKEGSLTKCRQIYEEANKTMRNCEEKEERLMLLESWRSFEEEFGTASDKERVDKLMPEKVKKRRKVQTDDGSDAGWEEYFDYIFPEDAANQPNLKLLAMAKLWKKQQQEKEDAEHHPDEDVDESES
UniProt P0DMU9: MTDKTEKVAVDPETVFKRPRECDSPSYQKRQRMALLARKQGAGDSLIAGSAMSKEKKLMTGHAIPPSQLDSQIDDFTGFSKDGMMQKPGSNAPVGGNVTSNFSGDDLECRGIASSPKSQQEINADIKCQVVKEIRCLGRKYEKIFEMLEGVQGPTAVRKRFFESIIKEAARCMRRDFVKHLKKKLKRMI
UniProt Q9P0U4, whole entry, looked up: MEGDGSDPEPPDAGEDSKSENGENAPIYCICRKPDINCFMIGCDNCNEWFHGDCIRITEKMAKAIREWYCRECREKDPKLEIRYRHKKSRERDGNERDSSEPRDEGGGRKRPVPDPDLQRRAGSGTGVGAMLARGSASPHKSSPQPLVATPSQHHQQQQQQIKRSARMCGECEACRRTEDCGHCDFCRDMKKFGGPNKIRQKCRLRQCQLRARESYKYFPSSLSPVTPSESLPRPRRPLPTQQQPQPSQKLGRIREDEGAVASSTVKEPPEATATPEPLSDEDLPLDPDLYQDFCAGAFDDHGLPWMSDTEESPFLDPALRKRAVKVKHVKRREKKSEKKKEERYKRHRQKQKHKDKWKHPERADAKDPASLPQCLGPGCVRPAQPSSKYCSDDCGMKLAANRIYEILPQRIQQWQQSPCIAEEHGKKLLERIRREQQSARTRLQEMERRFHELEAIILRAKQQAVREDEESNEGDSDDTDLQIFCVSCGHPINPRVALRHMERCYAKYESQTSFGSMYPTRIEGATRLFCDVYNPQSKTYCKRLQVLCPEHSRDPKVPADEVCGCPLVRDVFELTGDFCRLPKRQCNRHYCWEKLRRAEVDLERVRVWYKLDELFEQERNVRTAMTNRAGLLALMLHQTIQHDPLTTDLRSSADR
UniProt P41240: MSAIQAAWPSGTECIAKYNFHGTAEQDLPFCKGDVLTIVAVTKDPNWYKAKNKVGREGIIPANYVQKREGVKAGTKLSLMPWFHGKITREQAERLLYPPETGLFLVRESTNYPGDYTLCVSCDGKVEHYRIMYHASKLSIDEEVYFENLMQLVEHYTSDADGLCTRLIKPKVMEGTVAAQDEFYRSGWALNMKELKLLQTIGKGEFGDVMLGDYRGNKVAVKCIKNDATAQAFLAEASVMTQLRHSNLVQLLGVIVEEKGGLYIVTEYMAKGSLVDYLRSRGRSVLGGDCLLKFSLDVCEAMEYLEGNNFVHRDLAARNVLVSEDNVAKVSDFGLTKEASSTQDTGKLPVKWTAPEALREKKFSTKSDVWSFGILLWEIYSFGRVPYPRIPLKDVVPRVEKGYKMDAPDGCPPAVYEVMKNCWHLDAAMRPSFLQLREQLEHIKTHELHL
UniProt P04080: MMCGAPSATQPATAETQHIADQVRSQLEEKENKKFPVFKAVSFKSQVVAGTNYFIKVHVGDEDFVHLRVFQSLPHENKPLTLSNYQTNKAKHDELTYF
UniProt P08574: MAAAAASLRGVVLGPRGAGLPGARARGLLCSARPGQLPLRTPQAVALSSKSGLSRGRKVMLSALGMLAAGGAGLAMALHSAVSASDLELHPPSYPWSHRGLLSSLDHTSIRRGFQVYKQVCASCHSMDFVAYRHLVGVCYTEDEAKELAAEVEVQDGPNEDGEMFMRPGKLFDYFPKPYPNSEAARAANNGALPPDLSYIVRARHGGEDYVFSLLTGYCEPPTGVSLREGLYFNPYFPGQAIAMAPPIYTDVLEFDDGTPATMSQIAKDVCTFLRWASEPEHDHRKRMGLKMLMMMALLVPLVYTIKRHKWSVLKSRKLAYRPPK
UniProt P35221: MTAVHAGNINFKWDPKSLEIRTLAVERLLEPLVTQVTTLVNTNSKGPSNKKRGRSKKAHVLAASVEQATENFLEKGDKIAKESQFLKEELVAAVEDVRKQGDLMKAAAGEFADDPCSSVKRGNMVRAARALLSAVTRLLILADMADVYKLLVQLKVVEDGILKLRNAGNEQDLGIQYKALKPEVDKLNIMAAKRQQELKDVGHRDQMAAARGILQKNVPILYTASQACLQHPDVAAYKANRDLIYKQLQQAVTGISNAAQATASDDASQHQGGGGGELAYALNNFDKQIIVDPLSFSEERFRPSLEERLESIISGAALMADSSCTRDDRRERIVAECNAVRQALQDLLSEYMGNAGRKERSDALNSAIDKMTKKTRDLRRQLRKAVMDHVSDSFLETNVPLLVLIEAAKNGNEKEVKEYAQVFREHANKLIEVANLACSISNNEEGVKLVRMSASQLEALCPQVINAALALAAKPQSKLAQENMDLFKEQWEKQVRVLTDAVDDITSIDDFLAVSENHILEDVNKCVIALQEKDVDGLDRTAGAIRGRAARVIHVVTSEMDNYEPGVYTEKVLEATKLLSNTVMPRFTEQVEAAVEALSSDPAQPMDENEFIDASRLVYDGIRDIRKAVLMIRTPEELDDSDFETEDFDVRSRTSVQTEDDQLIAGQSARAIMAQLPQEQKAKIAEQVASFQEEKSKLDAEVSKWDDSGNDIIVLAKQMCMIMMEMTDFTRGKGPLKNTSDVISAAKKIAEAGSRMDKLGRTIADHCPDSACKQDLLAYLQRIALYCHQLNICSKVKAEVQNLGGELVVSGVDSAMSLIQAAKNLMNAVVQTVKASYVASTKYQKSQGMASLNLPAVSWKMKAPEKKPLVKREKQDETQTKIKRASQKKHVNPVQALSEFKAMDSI
UniProt P50461: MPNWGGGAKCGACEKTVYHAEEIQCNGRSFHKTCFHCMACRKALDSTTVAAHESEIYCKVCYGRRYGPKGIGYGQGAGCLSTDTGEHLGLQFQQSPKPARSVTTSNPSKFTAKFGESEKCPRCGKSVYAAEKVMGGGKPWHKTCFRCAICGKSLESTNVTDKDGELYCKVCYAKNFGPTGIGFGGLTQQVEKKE
UniProt O60888: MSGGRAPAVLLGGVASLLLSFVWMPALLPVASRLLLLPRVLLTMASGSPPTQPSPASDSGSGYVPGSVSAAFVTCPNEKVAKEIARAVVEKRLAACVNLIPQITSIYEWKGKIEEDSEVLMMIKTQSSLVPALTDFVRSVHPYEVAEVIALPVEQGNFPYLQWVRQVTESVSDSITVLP
UniProt P02511: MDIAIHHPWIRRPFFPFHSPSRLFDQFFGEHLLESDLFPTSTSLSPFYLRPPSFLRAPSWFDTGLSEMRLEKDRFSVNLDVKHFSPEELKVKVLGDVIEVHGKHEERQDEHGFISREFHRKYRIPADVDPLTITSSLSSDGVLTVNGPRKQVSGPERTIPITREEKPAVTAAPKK
UniProt Q8WYA6: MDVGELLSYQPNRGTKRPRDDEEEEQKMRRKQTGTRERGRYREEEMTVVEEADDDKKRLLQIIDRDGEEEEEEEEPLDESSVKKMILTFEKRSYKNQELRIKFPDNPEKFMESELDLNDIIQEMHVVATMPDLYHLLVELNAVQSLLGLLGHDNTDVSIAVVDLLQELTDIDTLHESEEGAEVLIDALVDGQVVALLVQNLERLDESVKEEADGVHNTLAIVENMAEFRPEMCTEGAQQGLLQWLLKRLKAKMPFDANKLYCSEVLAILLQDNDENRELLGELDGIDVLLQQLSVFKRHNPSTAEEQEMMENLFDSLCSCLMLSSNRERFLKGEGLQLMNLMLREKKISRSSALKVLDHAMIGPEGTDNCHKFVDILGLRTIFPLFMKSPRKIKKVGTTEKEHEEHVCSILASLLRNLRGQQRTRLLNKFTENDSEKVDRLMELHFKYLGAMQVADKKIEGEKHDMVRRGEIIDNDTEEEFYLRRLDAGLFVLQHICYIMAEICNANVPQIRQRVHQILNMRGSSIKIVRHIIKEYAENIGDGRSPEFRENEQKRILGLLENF
UniProt Q9NRF8: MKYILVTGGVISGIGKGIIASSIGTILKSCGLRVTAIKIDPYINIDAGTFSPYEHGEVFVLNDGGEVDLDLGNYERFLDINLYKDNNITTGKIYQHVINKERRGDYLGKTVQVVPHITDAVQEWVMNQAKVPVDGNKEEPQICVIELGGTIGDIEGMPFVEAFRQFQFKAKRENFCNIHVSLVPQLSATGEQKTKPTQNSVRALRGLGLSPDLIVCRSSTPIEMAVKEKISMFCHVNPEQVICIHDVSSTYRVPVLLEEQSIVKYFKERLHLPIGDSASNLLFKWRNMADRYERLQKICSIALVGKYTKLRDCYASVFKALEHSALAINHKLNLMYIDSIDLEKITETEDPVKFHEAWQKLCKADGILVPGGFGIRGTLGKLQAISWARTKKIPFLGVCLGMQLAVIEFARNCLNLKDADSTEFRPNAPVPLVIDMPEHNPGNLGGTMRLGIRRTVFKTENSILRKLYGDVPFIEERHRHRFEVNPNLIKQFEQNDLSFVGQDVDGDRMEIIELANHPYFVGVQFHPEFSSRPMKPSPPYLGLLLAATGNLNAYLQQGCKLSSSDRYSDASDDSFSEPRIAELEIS
UniProt Q2VPK5: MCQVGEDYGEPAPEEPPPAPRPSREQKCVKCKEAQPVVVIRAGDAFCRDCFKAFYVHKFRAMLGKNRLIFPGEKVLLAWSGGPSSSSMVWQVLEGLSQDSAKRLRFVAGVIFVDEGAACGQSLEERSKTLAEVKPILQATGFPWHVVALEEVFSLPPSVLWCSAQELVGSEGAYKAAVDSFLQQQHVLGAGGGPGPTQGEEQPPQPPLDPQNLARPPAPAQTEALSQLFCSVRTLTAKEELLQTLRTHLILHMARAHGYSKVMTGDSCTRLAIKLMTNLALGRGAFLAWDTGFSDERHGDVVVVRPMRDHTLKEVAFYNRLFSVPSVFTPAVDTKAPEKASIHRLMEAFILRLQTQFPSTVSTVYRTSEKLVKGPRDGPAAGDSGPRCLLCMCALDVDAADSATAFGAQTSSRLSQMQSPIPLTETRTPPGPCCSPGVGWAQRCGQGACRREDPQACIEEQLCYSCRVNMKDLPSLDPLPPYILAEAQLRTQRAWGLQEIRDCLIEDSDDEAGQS
UniProt P32929, whole entry, looked up: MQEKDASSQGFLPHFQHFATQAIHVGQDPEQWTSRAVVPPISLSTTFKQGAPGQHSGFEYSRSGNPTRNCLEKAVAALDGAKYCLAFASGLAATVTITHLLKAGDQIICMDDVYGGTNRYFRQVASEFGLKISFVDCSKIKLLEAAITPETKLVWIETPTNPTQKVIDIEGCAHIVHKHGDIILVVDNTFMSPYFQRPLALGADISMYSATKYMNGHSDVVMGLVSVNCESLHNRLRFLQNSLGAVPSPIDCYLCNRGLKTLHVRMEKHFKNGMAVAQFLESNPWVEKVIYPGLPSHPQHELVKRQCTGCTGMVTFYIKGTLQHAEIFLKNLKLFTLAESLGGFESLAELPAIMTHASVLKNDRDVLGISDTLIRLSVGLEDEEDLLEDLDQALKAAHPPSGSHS
UniProt O75718: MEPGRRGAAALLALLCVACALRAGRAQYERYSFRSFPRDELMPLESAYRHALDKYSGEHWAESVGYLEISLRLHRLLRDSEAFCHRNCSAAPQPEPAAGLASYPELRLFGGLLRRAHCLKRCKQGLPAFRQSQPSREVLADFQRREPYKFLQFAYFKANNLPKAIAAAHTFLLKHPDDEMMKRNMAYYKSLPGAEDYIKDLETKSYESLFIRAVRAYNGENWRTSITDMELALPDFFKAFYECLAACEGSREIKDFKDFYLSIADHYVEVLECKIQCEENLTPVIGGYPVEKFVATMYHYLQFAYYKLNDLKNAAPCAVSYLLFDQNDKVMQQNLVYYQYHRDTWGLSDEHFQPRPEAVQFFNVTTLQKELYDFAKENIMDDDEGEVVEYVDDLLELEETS

[2] = compound: Cc1nc(Nc2n[nH]c3c2CN(C(=O)N[C@H](CN(C)C)c2ccccc2)C3(C)C)c2sccc2n1
In short: as §1

[3] = compound: Cc1nc(Nc2ncc(C(=O)Nc3c(C)cccc3Cl)s2)cc(N2CCN(CCO)CC2)n1 [dasatinib]
In short: as §1

[4] = compound: Cc1ncc(-c2ccnc(Nc3ccc(S(C)(=O)=O)cc3)n2)n1C(C)C
In short: as §1

[5] = compound: Cn1cc(-c2ccc3c(c2)CCN3C(=O)Cc2cccc(C(F)(F)F)c2)c2c(N)ncnc21
In short: as §1

[6] = compound: Cn1cc(CNCC2CCN(c3ncc(C(=O)NO)cn3)CC2)c2ccccc21 [quisinostat]
In short: as §1

[7] = compound: Cn1cncc1[C@@](N)(c1ccc(Cl)cc1)c1ccc2c(c1)c(-c1cccc(Cl)c1)cc(=O)n2C [tipifarnib]
In short: as §1

[8] = compound: NC(=O)Nc1cc(-c2cccc(F)c2)sc1C(=O)N[C@H]1CCCNC1
In short: as §1

[9] = compound: NC(=O)c1cnc(N[C@@H]2CCCC[C@@H]2N)nc1Nc1cccc(-n2nccn2)c1
In short: as §1

[10] = compound: NC1(c2ccc(-c3nc4ccn5c(=O)[nH]nc5c4cc3-c3ccccc3)cc2)CCC1
In short: as §1

[11] = compound: NCC(=O)Nc1ccc(-n2nc(C(F)(F)F)cc2-c2ccc3c(ccc4ccccc43)c2)cc1
In short: as §1

[12] = compound: O=C(CCCCCCC(=O)Nc1ccccc1)NO [vorinostat]
In short: as §1

[13] = compound: O=C(O)c1ccc2c(c1)nc(Nc1cccc(Cl)c1)c1ccncc12 [silmitasertib]
In short: as §1

[14] = compound: O=C1NC(=O)C(c2cnc3ccccn23)=C1c1cn2c3c(cc(F)cc13)CN(C(=O)N1CCCCC1)CC2
In short: as §1

[15] = compound: c1cn2cc(-c3ccc4cn[nH]c4c3)nc(Nc3ccc(N4CCOCC4)cc3)c2n1 [entospletinib]
In short: as §1

Measured: log2 fold change

CRNKL1 (UniProt Q9BZJ0)
inactive: [1] 0.005 | [2] 0.01 | [3] -0.16 | [4] 0.066 | [5] -0.064 | [6] 0.272 | [7] -0.027 | [8] -0.067 | [9] -0.001 | [10] 0.171 | [11] -0.082 | [12] -0.255 | [13] 0.231 | [14] -0.206 | [15] 0.048

CROCC (UniProt Q5TZA2)
inactive: [1] -0.027 | [2] -0.031 | [3] -0.076 | [4] -0.036 | [5] 0.199 | [6] 0.003 | [7] 0.001 | [8] -0.031 | [9] 0.163 | [10] 0.057 | [11] 0.056 | [12] 0.083 | [13] 0.068 | [14] 0.063 | [15] -0.035

CT45A10 (UniProt P0DMU9)
inactive: [1] -0.004 | [2] 0.022 | [3] 0.014 | [4] -0.059 | [5] 0.024 | [6] 0.049 | [7] -0.028 | [8] -0.02 | [9] -0.012 | [10] 0.014 | [11] -0.037 | [12] 0.032 | [13] -0.023 | [14] -0.01 | [15] 0.004

CTBP2 isoform 2 (UniProt P56545)
inactive: [1] -0.022 | [2] 0.001 | [3] -0.025 | [4] -0.048 | [5] 0.019 | [6] -0.075 | [7] -0.015 | [8] -0.037 | [9] 0.018 | [10] -0.079 | [11] 0.041 | [12] -0.175 | [13] -0.002 | [14] -0.006 | [15] 0.021

Reprinted at random: 2 records from the list
CRNKL1 (UniProt Q9BZJ0)
inactive: [1] 0.005 | [2] 0.01 | [3] -0.16 | [4] 0.066 | [5] -0.064 | [6] 0.272 | [7] -0.027 | [8] -0.067 | [9] -0.001 | [10] 0.171 | [11] -0.082 | [12] -0.255 | [13] 0.231 | [14] -0.206 | [15] 0.048

CT45A10 (UniProt P0DMU9)
inactive: [1] -0.004 | [2] 0.022 | [3] 0.014 | [4] -0.059 | [5] 0.024 | [6] 0.049 | [7] -0.028 | [8] -0.02 | [9] -0.012 | [10] 0.014 | [11] -0.037 | [12] 0.032 | [13] -0.023 | [14] -0.01 | [15] 0.004

(cont.)

CXXC1 isoform 2 (UniProt Q9P0U4)
inactive: [1] 0.032 | [2] 0.029 | [3] -0.504 | [4] 0.026 | [5] -0.191 | [6] -0.159 | [7] -0.039 | [8] -0.013 | [9] -0.021 | [10] 0.082 | [11] -0.008 | [12] -0.18 | [13] 0.08 | [14] 0.027 | [15] -0.033

CSK (UniProt P41240)
active: [3] 0.578 | [8] 0.646
inactive: [1] 0.144 | [2] 0.125 | [4] 0.002 | [5] 0.102 | [6] -0.08 | [7] -0.041 | [9] 0.071 | [10] -0.043 | [11] -0.008 | [12] -0.262 | [13] -0.006 | [14] -0.021 | [15] 0.195

CSTB (UniProt P04080)
inactive: [1] 0.057 | [2] 0.009 | [3] -0.017 | [4] 0.079 | [5] -0.022 | [6] -0.206 | [7] -0.008 | [8] -0.004 | [9] -0.055 | [10] -0.005 | [11] -0.097 | [12] 0.125 | [13] -0.045 | [14] 0.022 | [15] -0.007

CYC1 (UniProt P08574)
inactive: [1] 0.089 | [2] -0.007 | [3] 0.038 | [4] 0.053 | [5] 0.019 | [6] 0.196 | [7] 0.001 | [8] 0.01 | [9] -0.062 | [10] 0.03 | [11] -0.074 | [12] 0.08 | [13] 0.021 | [14] -0.029 | [15] 0.003

CYB5R1 (UniProt Q9UHQ9)
inactive: [1] 0.059 | [2] -0.033 | [3] -0.025 | [4] 0.004 | [5] 0.031 | [6] 0.036 | [7] -0.072 | [8] 0.094 | [9] 0.013 | [10] -0.029 | [11] -0.018 | [12] -0.075 | [13] 0.005 | [14] -0.002 | [15] 0.005

CTNNA1 (UniProt P35221)
inactive: [1] -0.043 | [2] 0.006 | [3] 0.021 | [4] -0.001 | [5] -0.013 | [6] -0.076 | [7] -0.017 | [8] -0.003 | [9] -0.009 | [10] 0.005 | [11] -0.002 | [12] -0.003 | [13] -0.021 | [14] 0.033 | [15] 0.024

CSRP3 (UniProt P50461)
inactive: [1] 0.042 | [2] 0.145 | [3] -0.044 | [4] 0.12 | [5] 0.037 | [6] -0.028 | [7] 0.006 | [8] -0.172 | [9] 0.017 | [10] -0.01 | [11] 0.027 | [12] 0.087 | [13] 0.141 | [14] -0.045 | [15] 0

CUTA isoform 2 (UniProt O60888)
inactive: [1] -0.023 | [2] 0.007 | [3] -0.014 | [4] 0.113 | [5] -0.092 | [6] -0.015 | [7] -0.006 | [8] 0.069 | [9] -0.023 | [10] -0.009 | [11] 0.022 | [12] 0.093 | [13] -0.075 | [14] 0.048 | [15] 0.001

CRYAB (UniProt P02511)
inactive: [1] 0.096 | [2] 0.007 | [3] 0.062 | [4] -0.023 | [5] -0.045 | [6] -0.331 | [7] 0.162 | [8] 0.079 | [9] -0.113 | [10] -0.232 | [11] 0.054 | [12] 0.135 | [13] -0.079 | [14] 0.092 | [15] 0.036

CTNNBL1 (UniProt Q8WYA6)
inactive: [1] -0.034 | [2] 0.02 | [3] 0.025 | [4] -0.013 | [5] -0.065 | [6] -0.008 | [7] -0.019 | [8] 0.02 | [9] 0.011 | [10] -0.138 | [11] -0.026 | [12] -0.046 | [13] -0.044 | [14] -0.025 | [15] -0.011

CTPS2 (UniProt Q9NRF8)
inactive: [1] -0.005 | [2] 0.006 | [3] -0.035 | [4] -0.002 | [5] 0.01 | [6] 0.029 | [7] 0.003 | [8] 0.001 | [9] -0.003 | [10] 0.012 | [11] 0.006 | [13] 0.007 | [14] -0.034 | [15] 0.019
active: [12] 0.327

CTBP1 (UniProt Q13363)
inactive: [1] 0.047 | [2] 0.004 | [3] -0.015 | [4] 0.037 | [5] -0.032 | [6] -0.044 | [7] 0.209 | [8] 0.032 | [9] 0.016 | [10] 0.007 | [11] -0.04 | [12] -0.198 | [13] -0.011 | [14] 0.031 | [15] 0.003

CTU2 (UniProt Q2VPK5)
inactive: [1] 0.04 | [2] -0.018 | [3] 0.012 | [4] -0.024 | [5] 0.033 | [6] 0.112 | [7] 0.014 | [8] -0.003 | [9] 0.006 | [10] 0.074 | [11] -0.018 | [12] -0.081 | [13] 0.021 | [14] -0.022 | [15] 0.006

CTH (UniProt P32929)
inactive: [1] -0.022 | [2] 0.039 | [3] 0.043 | [4] 0.005 | [5] -0.032 | [6] -0.027 | [7] -0.048 | [8] -0.004 | [9] -0.019 | [10] -0.01 | [11] 0.059 | [12] 0.141 | [13] -0.052 | [14] -0.011 | [15] 0.02

CRTAP (UniProt O75718)
inactive: [1] -0.009 | [2] -0.025 | [3] 0.015 | [4] -0.004 | [5] 0.052 | [6] 0.104 | [7] -0.077 | [8] -0.023 | [9] -0.008 | [10] 0.06 | [11] -0.021 | [12] 0.054 | [13] 0.001 | [14] -0.07 | [15] -0.002

From the supplement of paper PMC10849652
